Some of the results follow. Only a few entries rise above the background.
Legend:
Test in all cases: fluorescence intensity of antibody binding to polysaccharide-coupled beads; higher = stronger binding
[1] = target: pneumococcal polysaccharide Pn22A
[2] = target: pneumococcal polysaccharide Pn22F
[3] = target: pneumococcal polysaccharide Pn23A
[4] = target: pneumococcal polysaccharide Pn23B
[5] = target: pneumococcal polysaccharide Pn23F
[6] = target: pneumococcal polysaccharide Pn24A
[7] = target: pneumococcal polysaccharide Pn24B
[8] = target: pneumococcal polysaccharide Pn24F
[9] = target: pneumococcal polysaccharide Pn25A
[10] = target: pneumococcal polysaccharide Pn25F
[11] = target: pneumococcal polysaccharide Pn27
[12] = target: pneumococcal polysaccharide Pn28A
[13] = target: pneumococcal polysaccharide Pn28F
[14] = target: pneumococcal polysaccharide Pn29
[15] = target: pneumococcal polysaccharide Pn3
[16] = target: pneumococcal polysaccharide Pn31
[17] = target: pneumococcal polysaccharide Pn32A
[18] = target: pneumococcal polysaccharide Pn32F
[19] = target: pneumococcal polysaccharide Pn33A
[20] = target: pneumococcal polysaccharide Pn33B
[21] = target: pneumococcal polysaccharide Pn33C
[22] = target: pneumococcal polysaccharide Pn33D
[23] = target: pneumococcal polysaccharide Pn33F
[24] = antibody concentration 81.7561 ng/mL
[25] = antibody concentration 437.17 ng/mL
[26] = antibody concentration 2337.65 ng/mL
[27] = antibody concentration 12500 ng/mL
[28] = antibody concentration 0.1 ng/mL
[29] = antibody concentration 0.534724 ng/mL
[30] = antibody concentration 2.8593 ng/mL
[31] = antibody concentration 15.2894 ng/mL

B1: 4-173.5 (protein)
chain 1: QLQLQESGPGLVKPSETLSLTCAVSGDSISSNYWSWIRQPPGKGLEWIGRISDGGGSTDYNPSLKSRVTISTDTSKNQFSLKLNSVTAADTAVYFCARGSYRVDYWGQGVLVTVSS
chain 2: QAALTQPPSMSGSPGQSVTISCTGASSDIGGYNRVSWYQQHPANAPKLMIYDVSKRPSGVSDRFSGSKSGNTASLTISGLQADDEADYYCSSYAHINTALFGGGTRLTVL
fluorescence intensity [1, 24]: 212 MFI | fluorescence intensity [1, 25]: 1140 MFI | fluorescence intensity [1, 26]: 3870 MFI | fluorescence intensity [1, 27]: 6180 MFI | fluorescence intensity [2, 28]: 32.5 MFI | fluorescence intensity [2, 29]: 30.2 MFI | fluorescence intensity [2, 30]: 34.5 MFI | fluorescence intensity [2, 31]: 44 MFI | fluorescence intensity [2, 24]: 118 MFI | fluorescence intensity [2, 25]: 490 MFI | fluorescence intensity [2, 26]: 1560 MFI | fluorescence intensity [2, 27]: 2440 MFI | fluorescence intensity [3, 28]: 27 MFI | fluorescence intensity [3, 29]: 26.5 MFI | fluorescence intensity [3, 30]: 26.2 MFI | fluorescence intensity [3, 31]: 23.5 MFI | fluorescence intensity [3, 24]: 28 MFI | fluorescence intensity [3, 25]: 70.5 MFI | fluorescence intensity [3, 26]: 426 MFI | fluorescence intensity [3, 27]: 1800 MFI | fluorescence intensity [4, 28]: 29 MFI | fluorescence intensity [4, 29]: 29.5 MFI | fluorescence intensity [4, 30]: 32.5 MFI | fluorescence intensity [4, 31]: 32.2 MFI | fluorescence intensity [4, 24]: 51.5 MFI | fluorescence intensity [4, 25]: 204 MFI | fluorescence intensity [4, 26]: 1120 MFI | fluorescence intensity [4, 27]: 2520 MFI | fluorescence intensity [5, 28]: 18.8 MFI | fluorescence intensity [5, 29]: 17.8 MFI | fluorescence intensity [5, 30]: 21 MFI | fluorescence intensity [5, 31]: 41 MFI | fluorescence intensity [5, 24]: 173 MFI | fluorescence intensity [5, 25]: 894 MFI | fluorescence intensity [5, 26]: 3040 MFI | fluorescence intensity [5, 27]: 4620 MFI | fluorescence intensity [6, 28]: 15 MFI | fluorescence intensity [6, 29]: 17 MFI | fluorescence intensity [6, 30]: 17.5 MFI | fluorescence intensity [6, 31]: 31 MFI | fluorescence intensity [6, 24]: 135 MFI | fluorescence intensity [6, 25]: 702 MFI | fluorescence intensity [6, 26]: 2750 MFI | fluorescence intensity [6, 27]: 4930 MFI | fluorescence intensity [7, 28]: 19.5 MFI | fluorescence intensity [7, 29]: 17.8 MFI | fluorescence intensity [7, 30]: 19.5 MFI | fluorescence intensity [7, 31]: 27 MFI | fluorescence intensity [7, 24]: 73.2 MFI | fluorescence intensity [7, 25]: 388 MFI | fluorescence intensity [7, 26]: 2050 MFI | fluorescence intensity [7, 27]: 3780 MFI | fluorescence intensity [8, 28]: 18.8 MFI | fluorescence intensity [8, 29]: 18 MFI | fluorescence intensity [8, 30]: 18.5 MFI | fluorescence intensity [8, 31]: 29 MFI | fluorescence intensity [8, 24]: 131 MFI | fluorescence intensity [8, 25]: 504 MFI | fluorescence intensity [8, 26]: 2590 MFI | fluorescence intensity [8, 27]: 4080 MFI | fluorescence intensity [9, 28]: 23.8 MFI | fluorescence intensity [9, 29]: 24.8 MFI | fluorescence intensity [9, 30]: 24.5 MFI | fluorescence intensity [9, 31]: 34.5 MFI | fluorescence intensity [9, 24]: 100 MFI | fluorescence intensity [9, 25]: 536 MFI | fluorescence intensity [9, 26]: 2630 MFI | fluorescence intensity [9, 27]: 5220 MFI | fluorescence intensity [10, 28]: 29 MFI | fluorescence intensity [10, 29]: 30.5 MFI | fluorescence intensity [10, 30]: 31.5 MFI | fluorescence intensity [10, 31]: 35 MFI | fluorescence intensity [10, 24]: 58 MFI | fluorescence intensity [10, 25]: 229 MFI | fluorescence intensity [10, 26]: 1090 MFI | fluorescence intensity [10, 27]: 2650 MFI | fluorescence intensity [11, 28]: 18 MFI | fluorescence intensity [11, 29]: 17.5 MFI | fluorescence intensity [11, 30]: 17 MFI | fluorescence intensity [11, 31]: 25 MFI | fluorescence intensity [11, 24]: 80 MFI | fluorescence intensity [11, 25]: 400 MFI | fluorescence intensity [11, 26]: 1720 MFI | fluorescence intensity [11, 27]: 3510 MFI | fluorescence intensity [12, 28]: 27.5 MFI | fluorescence intensity [12, 29]: 27 MFI | fluorescence intensity [12, 30]: 28 MFI | fluorescence intensity [12, 31]: 31 MFI | fluorescence intensity [12, 24]: 40.5 MFI | fluorescence intensity [12, 25]: 126 MFI | fluorescence intensity [12, 26]: 634 MFI | fluorescence intensity [12, 27]: 1620 MFI | fluorescence intensity [13, 28]: 29 MFI | fluorescence intensity [13, 29]: 29.8 MFI | fluorescence intensity [13, 30]: 29.5 MFI | fluorescence intensity [13, 31]: 35 MFI | fluorescence intensity [13, 24]: 53.8 MFI | fluorescence intensity [13, 25]: 205 MFI | fluorescence intensity [13, 26]: 955 MFI | fluorescence intensity [13, 27]: 2110 MFI | fluorescence intensity [14, 28]: 17 MFI | fluorescence intensity [14, 29]: 17 MFI | fluorescence intensity [14, 30]: 23.2 MFI | fluorescence intensity [14, 31]: 74.8 MFI | fluorescence intensity [14, 24]: 338 MFI | fluorescence intensity [14, 25]: 1400 MFI | fluorescence intensity [14, 26]: 3500 MFI | fluorescence intensity [14, 27]: 5080 MFI | fluorescence intensity [15, 28]: 13.5 MFI | fluorescence intensity [15, 29]: 12.5 MFI | fluorescence intensity [15, 30]: 13.5 MFI | fluorescence intensity [15, 31]: 14.8 MFI | fluorescence intensity [15, 24]: 14 MFI | fluorescence intensity [15, 25]: 16 MFI | fluorescence intensity [15, 26]: 20 MFI | fluorescence intensity [15, 27]: 40 MFI | fluorescence intensity [16, 28]: 15 MFI | fluorescence intensity [16, 29]: 13.8 MFI | fluorescence intensity [16, 30]: 16.8 MFI | fluorescence intensity [16, 31]: 27 MFI | fluorescence intensity [16, 24]: 108 MFI | fluorescence intensity [16, 25]: 476 MFI | fluorescence intensity [16, 26]: 1380 MFI | fluorescence intensity [16, 27]: 2170 MFI | fluorescence intensity [17, 28]: 18 MFI | fluorescence intensity [17, 29]: 16.5 MFI | fluorescence intensity [17, 30]: 17.5 MFI | fluorescence intensity [17, 31]: 18 MFI | fluorescence intensity [17, 24]: 23 MFI | fluorescence intensity [17, 25]: 52.5 MFI | fluorescence intensity [17, 26]: 279 MFI | fluorescence intensity [17, 27]: 918 MFI | fluorescence intensity [18, 28]: 28.5 MFI | fluorescence intensity [18, 29]: 27 MFI | fluorescence intensity [18, 30]: 25.8 MFI | fluorescence intensity [18, 31]: 30 MFI | fluorescence intensity [18, 24]: 35.5 MFI | fluorescence intensity [18, 25]: 62.5 MFI | fluorescence intensity [18, 26]: 214 MFI | fluorescence intensity [18, 27]: 700 MFI | fluorescence intensity [19, 28]: 18 MFI | fluorescence intensity [19, 29]: 19 MFI | fluorescence intensity [19, 30]: 19 MFI | fluorescence intensity [19, 31]: 17.5 MFI | fluorescence intensity [19, 24]: 19 MFI | fluorescence intensity [19, 25]: 36.8 MFI | fluorescence intensity [19, 26]: 159 MFI | fluorescence intensity [19, 27]: 782 MFI | fluorescence intensity [20, 28]: 18 MFI | fluorescence intensity [20, 29]: 18 MFI | fluorescence intensity [20, 30]: 19.5 MFI | fluorescence intensity [20, 31]: 21.5 MFI | fluorescence intensity [20, 24]: 39.5 MFI | fluorescence intensity [20, 25]: 228 MFI | fluorescence intensity [20, 26]: 1270 MFI | fluorescence intensity [20, 27]: 2380 MFI | fluorescence intensity [21, 28]: 20 MFI | fluorescence intensity [21, 29]: 20 MFI | fluorescence intensity [21, 30]: 23.5 MFI | fluorescence intensity [21, 31]: 53.5 MFI | fluorescence intensity [21, 24]: 348 MFI | fluorescence intensity [21, 25]: 1540 MFI | fluorescence intensity [21, 26]: 4580 MFI | fluorescence intensity [21, 27]: 6590 MFI | fluorescence intensity [22, 28]: 17.2 MFI | fluorescence intensity [22, 29]: 15 MFI | fluorescence intensity [22, 30]: 15 MFI | fluorescence intensity [22, 31]: 18 MFI | fluorescence intensity [22, 24]: 27.8 MFI | fluorescence intensity [22, 25]: 97.5 MFI | fluorescence intensity [22, 26]: 738 MFI | fluorescence intensity [22, 27]: 1740 MFI | fluorescence intensity [23, 28]: 13 MFI | fluorescence intensity [23, 29]: 12.5 MFI | fluorescence intensity [23, 30]: 14 MFI | fluorescence intensity [23, 31]: 16 MFI | fluorescence intensity [23, 24]: 39.5 MFI | fluorescence intensity [23, 25]: 201 MFI | fluorescence intensity [23, 26]: 1000 MFI | fluorescence intensity [23, 27]: 2370 MFI

From the supplement of paper PMC11438910
